Values from PubChem BioAssay AID1259254 (NCATS, 2017).
Here is one part, drawn at random, of about 59,000 deposited reagents. About 1,550 of all reagents (2.6%) count as active. 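G2 share is only a proxy for re-replication; each gene was hit by three separate siRNAs, and active genes were retested.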 Further read-outs or replicates are left out here. Not stated in the record: the amount of reagent.

Screen: 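Gene knock-downs that lead to re-replication, shown by excess G2 DNA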 (primary screen)
Cell system: human HCT116 colorectal cancer cells
Reagent: single siRNA against human genes
Timing: 3 days
Measurement: 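Imaged Hoechst DNA stain sorts each cell into a cycle phase by DNA amount; per plate, G2 fraction set to 0% for non-targeting and 100% for GMNN siRNA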
Reading the numbers: G2 robust z-score: higher = more G2 cells, more excess DNA replication
Call rule: 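An siRNA counts as active if its G2 robust z-score lies at least 5 MADs above the screen median; here such calls match roughly 38% of GMNN control or more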

{"Target gene":"EMC3 (ER membrane protein complex subunit 3)","PubChem SID":"SID160744472","G2 robust z-score":5.7,"Outcome":"active"}
{"Target gene":"EMC3 (ER membrane protein complex subunit 3)","PubChem SID":"SID160744473","G2 robust z-score":-0.16,"Outcome":"inactive"}
{"Target gene":"EMC3 (ER membrane protein complex subunit 3)","PubChem SID":"SID160744474","G2 robust z-score":0.0196,"Outcome":"inactive"}
{"Target gene":"GPR176 (G protein-coupled receptor 176)","PubChem SID":"SID160730273","G2 robust z-score":-1.2,"Outcome":"inactive"}
{"Target gene":"GPR176 (G protein-coupled receptor 176)","PubChem SID":"SID160730274","G2 robust z-score":-0.954,"Outcome":"inactive"}
{"Target gene":"GPR176 (G protein-coupled receptor 176)","PubChem SID":"SID160730527","G2 robust z-score":-0.858,"Outcome":"inactive"}
{"Target gene":"EPDR1 (ependymin related 1)","PubChem SID":"SID160742096","G2 robust z-score":5.34,"Outcome":"active"}
{"Target gene":"EPDR1 (ependymin related 1)","PubChem SID":"SID160742097","G2 robust z-score":-0.867,"Outcome":"inactive"}
{"Target gene":"EPDR1 (ependymin related 1)","PubChem SID":"SID160742098","G2 robust z-score":4.92,"Outcome":"inactive"}
{"Target gene":"C2CD2 (C2 calcium dependent domain containing 2)","PubChem SID":"SID160737350","G2 robust z-score":-0.739,"Outcome":"inactive"}
{"Target gene":"C2CD2 (C2 calcium dependent domain containing 2)","PubChem SID":"SID160737351","G2 robust z-score":1.36,"Outcome":"inactive"}
{"Target gene":"C2CD2 (C2 calcium dependent domain containing 2)","PubChem SID":"SID160737353","G2 robust z-score":-0.0835,"Outcome":"inactive"}
{"Target gene":"PARP10 (poly(ADP-ribose) polymerase family member 10)","PubChem SID":"SID160724640","G2 robust z-score":-0.757,"Outcome":"inactive"}
{"Target gene":"PARP10 (poly(ADP-ribose) polymerase family member 10)","PubChem SID":"SID160752831","G2 robust z-score":1.16,"Outcome":"inactive"}
{"Target gene":"PARP10 (poly(ADP-ribose) polymerase family member 10)","PubChem SID":"SID160752832","G2 robust z-score":-0.0849,"Outcome":"inactive"}

Reprinted from the listing (3 entries):
{"Target gene":"EMC3 (ER membrane protein complex subunit 3)","PubChem SID":"SID160744472","G2 robust z-score":5.7,"Outcome":"active"}
{"Target gene":"EMC3 (ER membrane protein complex subunit 3)","PubChem SID":"SID160744473","G2 robust z-score":-0.16,"Outcome":"inactive"}
{"Target gene":"EMC3 (ER membrane protein complex subunit 3)","PubChem SID":"SID160744474","G2 robust z-score":0.0196,"Outcome":"inactive"}

The list goes on:
{"Target gene":"UTP11 (UTP11 small subunit processome component)","PubChem SID":"SID160731351","G2 robust z-score":2.14,"Outcome":"inactive"}
{"Target gene":"UTP11 (UTP11 small subunit processome component)","PubChem SID":"SID160740107","G2 robust z-score":0.261,"Outcome":"inactive"}
{"Target gene":"UTP11 (UTP11 small subunit processome component)","PubChem SID":"SID160740109","G2 robust z-score":7.85,"Outcome":"active"}
{"Target gene":"INCENP (inner centromere protein)","PubChem SID":"SID160775835","G2 robust z-score":14.2,"Outcome":"active"}
{"Target gene":"INCENP (inner centromere protein)","PubChem SID":"SID160775836","G2 robust z-score":11.4,"Outcome":"active"}
{"Target gene":"INCENP (inner centromere protein)","PubChem SID":"SID160775837","G2 robust z-score":14.5,"Outcome":"active"}
{"Target gene":"CCNP (cyclin P)","PubChem SID":"SID160749810","G2 robust z-score":3.84,"Outcome":"inactive"}
{"Target gene":"CCNP (cyclin P)","PubChem SID":"SID160749811","G2 robust z-score":0.794,"Outcome":"inactive"}
{"Target gene":"CCNP (cyclin P)","PubChem SID":"SID160749812","G2 robust z-score":-0.537,"Outcome":"inactive"}
